Source: ChEMBL document CHEMBL3988442, “University of Dundee, Small-Polar-MMV Screening Library” (2021).

Chains of the proteins cited; added tags and fusions are not shown. Residues count along the entry.
UniProt P9WPC5, whole entry: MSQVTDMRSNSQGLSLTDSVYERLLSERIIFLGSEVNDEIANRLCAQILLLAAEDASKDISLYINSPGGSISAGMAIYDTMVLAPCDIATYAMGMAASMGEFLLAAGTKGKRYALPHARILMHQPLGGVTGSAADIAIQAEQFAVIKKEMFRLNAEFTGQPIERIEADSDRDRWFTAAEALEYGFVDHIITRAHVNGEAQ
UniProt P9WPC3, whole entry partner: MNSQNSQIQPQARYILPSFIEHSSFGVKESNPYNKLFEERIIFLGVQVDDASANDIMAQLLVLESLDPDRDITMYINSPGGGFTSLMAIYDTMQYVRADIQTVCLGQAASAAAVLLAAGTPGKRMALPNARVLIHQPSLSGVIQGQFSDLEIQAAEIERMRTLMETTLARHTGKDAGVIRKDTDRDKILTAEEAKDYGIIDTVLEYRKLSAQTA
UniProt Q4DA54, 1-478: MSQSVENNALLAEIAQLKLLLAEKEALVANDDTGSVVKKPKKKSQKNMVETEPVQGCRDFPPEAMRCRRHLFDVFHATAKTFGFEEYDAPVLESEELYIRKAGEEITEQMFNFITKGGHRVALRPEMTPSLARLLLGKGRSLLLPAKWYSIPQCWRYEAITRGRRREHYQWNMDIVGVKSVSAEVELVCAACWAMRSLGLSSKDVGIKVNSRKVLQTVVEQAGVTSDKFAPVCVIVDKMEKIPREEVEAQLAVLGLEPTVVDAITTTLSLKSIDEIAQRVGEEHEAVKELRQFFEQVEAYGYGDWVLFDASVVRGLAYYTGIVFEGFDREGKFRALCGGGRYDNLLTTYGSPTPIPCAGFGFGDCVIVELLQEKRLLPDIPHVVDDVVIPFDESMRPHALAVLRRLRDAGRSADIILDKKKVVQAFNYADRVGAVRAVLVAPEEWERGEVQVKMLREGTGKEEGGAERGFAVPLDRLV
UniProt Q8IDJ8, 1-583: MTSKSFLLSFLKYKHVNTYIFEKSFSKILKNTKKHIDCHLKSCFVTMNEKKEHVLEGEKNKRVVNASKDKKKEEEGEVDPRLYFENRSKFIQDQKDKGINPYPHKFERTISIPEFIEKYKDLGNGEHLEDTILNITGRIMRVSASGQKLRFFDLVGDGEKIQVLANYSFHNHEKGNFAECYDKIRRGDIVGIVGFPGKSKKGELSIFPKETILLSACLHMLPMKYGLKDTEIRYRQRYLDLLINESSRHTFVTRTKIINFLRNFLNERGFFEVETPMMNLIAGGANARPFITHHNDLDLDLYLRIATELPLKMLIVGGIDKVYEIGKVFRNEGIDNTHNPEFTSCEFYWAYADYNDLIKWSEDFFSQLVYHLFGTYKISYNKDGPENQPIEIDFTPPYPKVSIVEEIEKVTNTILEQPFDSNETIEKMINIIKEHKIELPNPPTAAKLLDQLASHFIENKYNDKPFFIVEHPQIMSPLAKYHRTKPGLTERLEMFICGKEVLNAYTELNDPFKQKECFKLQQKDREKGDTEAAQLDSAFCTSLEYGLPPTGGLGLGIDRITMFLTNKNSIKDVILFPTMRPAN
UniProt I6X8D2, whole entry: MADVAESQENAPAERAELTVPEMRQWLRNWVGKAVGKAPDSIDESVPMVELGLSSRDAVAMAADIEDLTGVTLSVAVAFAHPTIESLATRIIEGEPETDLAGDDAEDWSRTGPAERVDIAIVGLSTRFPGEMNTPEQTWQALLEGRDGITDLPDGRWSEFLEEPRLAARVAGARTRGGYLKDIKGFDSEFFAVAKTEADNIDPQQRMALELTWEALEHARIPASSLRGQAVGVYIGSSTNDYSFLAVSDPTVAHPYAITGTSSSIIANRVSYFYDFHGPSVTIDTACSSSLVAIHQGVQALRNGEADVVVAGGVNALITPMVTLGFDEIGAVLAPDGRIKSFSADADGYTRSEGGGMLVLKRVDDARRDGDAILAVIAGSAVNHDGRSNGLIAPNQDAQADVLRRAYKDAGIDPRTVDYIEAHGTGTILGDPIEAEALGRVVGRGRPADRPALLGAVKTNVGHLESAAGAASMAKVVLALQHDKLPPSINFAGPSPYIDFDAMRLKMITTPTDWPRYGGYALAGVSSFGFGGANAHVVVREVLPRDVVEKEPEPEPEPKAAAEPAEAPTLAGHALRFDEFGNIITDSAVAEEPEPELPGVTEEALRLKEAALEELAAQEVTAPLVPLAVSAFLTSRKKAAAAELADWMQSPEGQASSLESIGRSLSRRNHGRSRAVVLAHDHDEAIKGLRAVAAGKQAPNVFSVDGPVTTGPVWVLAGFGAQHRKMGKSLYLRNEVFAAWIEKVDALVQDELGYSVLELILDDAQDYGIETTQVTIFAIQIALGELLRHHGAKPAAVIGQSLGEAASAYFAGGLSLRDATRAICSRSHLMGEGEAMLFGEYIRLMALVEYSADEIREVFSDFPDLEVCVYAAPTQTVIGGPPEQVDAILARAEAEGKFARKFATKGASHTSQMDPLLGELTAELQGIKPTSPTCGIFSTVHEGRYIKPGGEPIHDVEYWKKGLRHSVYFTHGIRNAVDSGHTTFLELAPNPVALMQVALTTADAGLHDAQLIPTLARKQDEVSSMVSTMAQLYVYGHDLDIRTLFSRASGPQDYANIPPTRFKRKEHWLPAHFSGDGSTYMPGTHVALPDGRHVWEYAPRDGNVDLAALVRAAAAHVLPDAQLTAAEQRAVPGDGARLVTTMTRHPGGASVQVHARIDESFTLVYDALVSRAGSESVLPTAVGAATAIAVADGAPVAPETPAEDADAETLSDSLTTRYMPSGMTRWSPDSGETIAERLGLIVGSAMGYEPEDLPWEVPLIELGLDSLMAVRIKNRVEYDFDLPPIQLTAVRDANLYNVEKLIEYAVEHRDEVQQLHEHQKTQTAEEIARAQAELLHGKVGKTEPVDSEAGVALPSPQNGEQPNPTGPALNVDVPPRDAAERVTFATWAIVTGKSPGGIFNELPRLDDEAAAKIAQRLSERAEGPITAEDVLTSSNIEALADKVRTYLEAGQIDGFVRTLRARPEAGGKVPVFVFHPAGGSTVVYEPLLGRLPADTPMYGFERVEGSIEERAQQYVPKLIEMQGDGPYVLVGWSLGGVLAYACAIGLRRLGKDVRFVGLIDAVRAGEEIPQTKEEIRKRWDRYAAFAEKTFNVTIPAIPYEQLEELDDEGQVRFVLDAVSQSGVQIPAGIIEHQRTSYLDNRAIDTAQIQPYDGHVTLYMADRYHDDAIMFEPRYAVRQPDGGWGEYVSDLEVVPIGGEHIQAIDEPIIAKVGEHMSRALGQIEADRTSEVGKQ

ClpP1P2: 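ClpP1P2, Mycobacterium tuberculosis (UniProt P9WPC5 and UniProt P9WPC3). Protease assay of ClpP1P2, read by the AMC dye that it sets free. Compounds at 50 µM. Direction is inferred from only a few compounds that gave an IC50; most scored high, so higher reads as stronger inhibition. Most other retested compounds had strongly negative values. Of about 69,000 compounds tested this way, about 10 (0.015%) reached 50% or more in at least one test.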
TcHisRS: 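Enzyme assay of histidyl-tRNA synthetase; the read-out is not stated. Target: Histidine-tRNA ligase, Trypanosoma cruzi CL Brener (UniProt Q4DA54). Tested at 30 µM. The record gives no direction; compounds that gave an IC50 in retests scored well above the rest, so higher reads as stronger inhibition. Of about 69,000 compounds tested this way, about 31 (0.045%) reached 50% or more in at least one test.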
PfKRS1: 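Lysine-tRNA ligase, Plasmodium falciparum 3D7 (UniProt Q8IDJ8). Enzyme assay of the cytosolic lysyl-tRNA synthetase in 384-well plates, read by luminescence. Concentration: 30 µM. Higher reads as stronger inhibition, judged from the few compounds that gave an IC50. Of about 69,000 compounds tested this way, about 49 (0.071%) reached 50% or more in at least one test.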
Pks13 thioesterase: 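Enzyme assay of the thioesterase domain of polyketide synthase 13; the read-out is not stated. Target: Polyketide synthase Pks13, Mycobacterium tuberculosis (UniProt I6X8D2). Compounds at 30 µM. Higher reads as stronger inhibition (inferred from which compounds were picked for retests). Of about 67,000 compounds tested this way, about 300 (0.46%) reached 50% or more in at least one test.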

Results are given as percent effect.
The controls that fix the scale are not given in the record; negative values are as filed.
Compounds were drawn at random from those tested, without regard to their results.
A dash means the value is not listed here; it may have been measured.

SMILES | ClpP1P2 | TcHisRS | PfKRS1 | Pks13 thioesterase
COc1cccc(CNC(=O)c2cccnc2SC(C)C)c1 | 3.734% | 3.152% | 1.157% | -5.465%
CN1N=C(C(=O)NCCc2csc(-c3ccccc3)n2)CCC1=O | -7.005% | 13.81% | 3.189% | -48.78%
Cc1n[nH]cc1CNC1CCN(c2ccc(F)cc2)CC1 | 0.3254% | 13.29% | 2.721% | -7.315%
COc1ccc(CC(=O)NCCNS(=O)(=O)c2ccc(C)cc2)cc1 | 13.17% | 7.035% | 3.178% | -6.7%
Cc1ncc(-c2ccncc2)c(C2CCCN(C(=O)c3ccno3)C2)n1 (stereo not drawn) | -3.191% | -0.7576% | -0.4411% | -13.31%
Cc1ccc2[nH]c(C(=O)NCCCn3ccnn3)c(C)c2c1 | 14.3% | -2.222% | -2.016% | -15.6%
Cc1oc(-c2ccsc2)nc1CC(=O)NCCCS(C)(=O)=O | -19.91% | -0.4484% | -2.202% | -10.97%
CC(=O)N1CCCC1c1nnn2cc(Nc3ccccc3)ccc12 (stereo not drawn) | 14.12% | 1.075% | -5.053% | -61.82%
O=C(c1cnccn1)N1CCN(c2ccnc3ccsc23)CC1 | -2.529% | 6.186% | 1.852% | -4.542%
COc1cc(C(=O)N(C2CC2)C2CC(=O)NC2=O)ccc1C (stereo not drawn) | -8.962% | 1.504% | 6.554% | -26.09%
O=C1CCCN1CCCC(=O)N1CCC2(CC1)[C@H](O)C[C@@H]2O | -16.97% | -2.4% | 7.39% | -9.186%
CCc1nc(CN(C)CC2CCN(CCO)CC2)no1 | -13.96% | -2.5% | 0.8557% | -19.94%
CN(Cc1noc(C2CC2)n1)C1CCN(Cc2ncc[nH]2)C1 (stereo not drawn) | -26.81% | 2.941% | -1.014% | -24.36%
Cc1cnc(C(=O)N2CCCCC2c2[nH]ncc2S(C)(=O)=O)cn1 (stereo not drawn) | 1.142% | 4.301% | 8.906% | -35.24%
CNC(=O)N1CC[C@@H]2CN(Cc3cccc(Cl)c3)S(=O)(=O)[C@@H]2CC1 | 6.233% | 1.961% | 5.503% | -16.81%
CCOc1cc(C)nc(N2CCN(C(=O)CN(C)C3CC3)CC2)n1 | -20.08% | 1.17% | -0.3427% | -5.304%
CCNc1cc2c(nn1)CCN(C(=O)CCc1c(C)noc1Cl)C2 | -19.28% | 6.936% | -1.114% | -10.1%
CNc1ccc(CC2CCCN(C(=O)c3cnco3)C2)nn1 (stereo not drawn) | -4.075% | 9.89% | 1.837% | 19.93%
Cc1csc(N2CCN(CC(=O)Nc3nncs3)CC2C)n1 (stereo not drawn) | 2.629% | -0.3831% | -0.07474% | -13.35%
Cc1cc2c(=O)n3c(nc2s1)CCN(C(=O)c1ccnn1C(C)C)CC3 | -7.703% | 4.494% | -1.012% | 3.663%
Cc1cnccc1NCCNC(=O)[C@H]1CNC[C@H](C(=O)N2CCCC2)C1 | -12.31% | 3.015% | -12.93% | -21.69%
CC(C)c1nc(C2CCCN(c3nccc(N4CCCC4)n3)C2)no1 (stereo not drawn) | -2.353% | 0% | 3.463% | -3.419%
Cc1cnn(CC2CN(CCCS(=O)(=O)N(C)C)CCO2)c1 (stereo not drawn) | -1.574% | 1.058% | -1.793% | -18.97%
NC(=O)c1cccc(OCC(=O)N2CCCC(n3cccn3)C2)c1 (stereo not drawn) | -10.55% | -1.681% | 5.853% | -1.116%
Cc1ccc(CN(C)C(=O)Cn2nc(-c3ccc(F)cc3)oc2=O)cc1 | -8.828% | -1.961% | 7.321% | 7.061%
Fc1ccccc1CN1CCCC2(CCN(c3ncccn3)CC2)C1 | -8.488% | 5.435% | 6.395% | -29.36%
Cc1ccc(CN2CC3(CCN(C(=O)c4cscn4)C3)C2)s1 | -6.592% | 3.306% | -3.259% | -
CC1CCC2(CC1)Nc1ccccc1CO2 (stereo not drawn) | 0.6326% | 9% | 2.231% | -8.609%
NC(=O)c1cc(C2CCCN(CCOc3ccc(F)cc3)C2)n[nH]1 (stereo not drawn) | -7.099% | 7.331% | -0.5823% | -19.39%
COc1ccccc1C1CCCN1CC(=O)N1CCC(C(N)=O)CC1 (stereo not drawn) | -3.732% | 0.7605% | -0.2431% | -5.196%
CN(C)c1ncc(-c2cccc(F)c2)c(C2CNCCO2)n1 (stereo not drawn) | -18.37% | 3.802% | -0.5926% | 11.02%
O=S(=O)(CCc1ccccc1)Cc1nc(C2CC2)no1 | -17.54% | -3.784% | 0.124% | -18.71%
O=C(CCCNc1ncccn1)Nc1cc(C(F)(F)F)c[nH]c1=O | -16.85% | 6.122% | -1.027% | -8.868%

3 of the entries, repeated:

SMILES	ClpP1P2	TcHisRS	PfKRS1	Pks13 thioesterase
Cc1cnccc1NCCNC(=O)[C@H]1CNC[C@H](C(=O)N2CCCC2)C1	-12.31%	3.015%	-12.93%	-21.69%
CN1N=C(C(=O)NCCc2csc(-c3ccccc3)n2)CCC1=O	-7.005%	13.81%	3.189%	-48.78%
CC(C)c1nc(C2CCCN(c3nccc(N4CCCC4)n3)C2)no1 (stereo not drawn)	-2.353%	0%	3.463%	-3.419%